PubChem BioAssay AID1159578 – Peter MacCallum Cancer Centre | 2015
Purpose: 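siRNA pools altering how lymphatic endothelial cells close a scratch wound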 (primary screen). System: human lymphatic endothelial cells. Reagents: siRNA pool against human genes, 40 nM. Timing: 48 h after transfection. Measured: 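High-content imaging of dye-stained cells in a scratch assay measures filled wound area and nuclei per well; duplicate means given as ratio to mock and robust z-score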. Reading the numbers: migration robust z-score: higher = faster migration into the scratch; migration relative to mock: higher = more scratch area covered than mock; nuclei per well: higher = more cells in the well. Rule for the call: 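Migration changed when robust z exceeds 2 or falls below -2 and mean nuclei number is at least 3300; otherwise not called changed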. Calls: active = migration changed; inactive = no migration change, or too few cells.
In all, the deposit lists about 18,000 reagents; below is a part drawn at random. About 1,030 of them (5.7%) were called active. 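Inactive calls also include pools with fewer than 3300 nuclei, whose migration was not assessed.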 Raw values vary from plate to plate and are shown uncorrected.

gene knocked down | migration robust z-score | migration class with cell-count check | migration relative to mock | nuclei per well, duplicate mean | outcome
TRMT10C (GeneID 54931) | 0.97 | migration z between -2 and 2; enough cells | 1.14 | 6718 | inactive
C6orf136 (GeneID 221545) | 0.22 | migration z between -2 and 2; enough cells | 0.94 | 5710 | inactive
TAAR9 (GeneID 134860) | 0.05 | migration z between -2 and 2; enough cells | 0.82 | 5049 | inactive
PPM1G (GeneID 5496) | 1.38 | migration z between -2 and 2; enough cells | 1.07 | 5252 | inactive
HMGCS2 (GeneID 3158) | 0.41 | migration z between -2 and 2; enough cells | 0.99 | 7516 | inactive
SLC5A4 (GeneID 6527) | 0.31 | migration z between -2 and 2; enough cells | 0.86 | 5777 | inactive
NBPF10 (GeneID 100132406) | -1.38 | migration z between -2 and 2; enough cells | 0.52 | 4880 | inactive
VMA22 (GeneID 84317) | -0.5 | migration z between -2 and 2; enough cells | 0.76 | 5198 | inactive
SH3BGRL2 (GeneID 83699) | 2.84 | migration z above 2; enough cells | 1.63 | 5858 | active
PRKAG2 (GeneID 51422) | -0.72 | migration z between -2 and 2; enough cells | 0.66 | 5092 | inactive
FHL3 (GeneID 2275) | 0.46 | migration z between -2 and 2; enough cells | 1 | 5550 | inactive
TRAPPC14 (GeneID 55262) | 0.23 | migration z between -2 and 2; enough cells | 0.94 | 4350 | inactive
MDC1 (GeneID 9656) | 1.05 | migration z between -2 and 2; enough cells | 1.16 | 5248 | inactive
ISL2 (GeneID 64843) | -2.91 | migration z below -2; enough cells | 0.24 | 4010 | active
ALOX15B (GeneID 247) | 0.6 | migration z between -2 and 2; enough cells | 0.92 | 5200 | inactive
TCAP (GeneID 8557) | -1.36 | migration z between -2 and 2; enough cells | 0.53 | 5698 | inactive
CHMP4B (GeneID 128866) | -0.43 | migration z between -2 and 2; enough cells | 0.77 | 7611 | inactive
ATP6V0B (GeneID 533) | 0.38 | migration z between -2 and 2; enough cells | 0.99 | 5874 | inactive
SUMF1 (GeneID 285362) | 0.33 | migration z between -2 and 2; enough cells | 0.98 | 5520 | inactive
EFNA4 (GeneID 1945) | -0.64 | migration z between -2 and 2; enough cells | 0.68 | 3580 | inactive
DENND6B (GeneID 414918) | 2.92 | migration z above 2; enough cells | 1.64 | 6117 | active
EIF2B3 (GeneID 8891) | -0.02 | migration z between -2 and 2; enough cells | 0.8 | 5962 | inactive
EPB41L1 (GeneID 2036) | 0.29 | migration z between -2 and 2; enough cells | 0.86 | 5105 | inactive
HEXIM2 (GeneID 124790) | -0.86 | migration z between -2 and 2; enough cells | 0.66 | 6420 | inactive
DEFB106B (GeneID 503841) | -1.6 | migration z between -2 and 2; enough cells | 0.46 | 6776 | inactive
GPR173 (GeneID 54328) | -1.9 | migration z between -2 and 2; enough cells | 0.44 | 6862 | inactive
CHAD (GeneID 1101) | 0.42 | migration z between -2 and 2; enough cells | 1 | 5557 | inactive
SUN5 (GeneID 140732) | 1.98 | migration z between -2 and 2; enough cells | 1.4 | 6270 | inactive
CCNO (GeneID 10309) | 0.08 | migration z between -2 and 2; enough cells | 0.82 | 5938 | inactive
VPS33B (GeneID 26276) | -1.08 | migration z between -2 and 2; enough cells | 0.6 | 5179 | inactive
CDY2B (GeneID 203611) | -2.1 | migration z below -2; enough cells | 0.4 | 5010 | active
C9 (GeneID 735) | -0.57 | migration z between -2 and 2; enough cells | 0.74 | 5501 | inactive

Records above whose target name starts with D or d:
gene knocked down | migration robust z-score | migration class with cell-count check | migration relative to mock | nuclei per well, duplicate mean | outcome
DENND6B (GeneID 414918) | 2.92 | migration z above 2; enough cells | 1.64 | 6117 | active
DEFB106B (GeneID 503841) | -1.6 | migration z between -2 and 2; enough cells | 0.46 | 6776 | inactive

More results follow:
gene knocked down | migration robust z-score | migration class with cell-count check | migration relative to mock | nuclei per well, duplicate mean | outcome
ANKRD40 (GeneID 91369) | -0.66 | migration z between -2 and 2; enough cells | 0.72 | 6231 | inactive
NOTCH4 (GeneID 4855) | 0.31 | migration z between -2 and 2; enough cells | 0.86 | 5610 | inactive
UNC93A (GeneID 54346) | -0.1 | migration z between -2 and 2; enough cells | 0.86 | 6534 | inactive
UBE2F (GeneID 140739) | -0.93 | under 3300 nuclei; migration not judged | 0.62 | 2891 | inactive
ZNF687 (GeneID 57592) | -0.71 | migration z between -2 and 2; enough cells | 0.7 | 5092 | inactive
BLID (GeneID 414899) | -0.04 | migration z between -2 and 2; enough cells | 0.88 | 5337 | inactive
TRAK1 (GeneID 22906) | -0.42 | migration z between -2 and 2; enough cells | 0.78 | 6084 | inactive
TCF3 (GeneID 6929) | 0 | migration z between -2 and 2; enough cells | 0.8 | 5614 | inactive
MOCOS (GeneID 55034) | 0.15 | migration z between -2 and 2; enough cells | 0.84 | 7607 | inactive
KCTD15 (GeneID 79047) | -1.86 | migration z between -2 and 2; enough cells | 0.44 | 4718 | inactive
ADD1 (GeneID 118) | 0.05 | migration z between -2 and 2; enough cells | 0.82 | 5721 | inactive
PACS1 (GeneID 55690) | -0.18 | migration z between -2 and 2; enough cells | 0.84 | 5746 | inactive
NCOA5 (GeneID 57727) | -0.64 | migration z between -2 and 2; enough cells | 0.72 | 3670 | inactive
OCIAD2 (GeneID 132299) | -0.12 | migration z between -2 and 2; enough cells | 0.85 | 6001 | inactive
IL32 (GeneID 9235) | -1.39 | migration z between -2 and 2; enough cells | 0.52 | 6148 | inactive
CYP4F2 (GeneID 8529) | -2.69 | migration z below -2; enough cells | 0.29 | 4176 | active
RMP24 (GeneID 83608) | -1.69 | migration z between -2 and 2; enough cells | 0.45 | 4442 | inactive
ZNF30 (GeneID 90075) | 0.96 | migration z between -2 and 2; enough cells | 1.14 | 6133 | inactive
OPN5 (GeneID 221391) | 0.8 | migration z between -2 and 2; enough cells | 0.96 | 6134 | inactive
TCF12 (GeneID 6938) | -2.02 | migration z below -2; enough cells | 0.42 | 5166 | active
EIF2B2 (GeneID 8892) | 0.68 | migration z between -2 and 2; enough cells | 0.94 | 6385 | inactive
GHDC (GeneID 84514) | -0.07 | migration z between -2 and 2; enough cells | 0.87 | 5752 | inactive
NEO1 (GeneID 4756) | -0.73 | migration z between -2 and 2; enough cells | 0.66 | 5492 | inactive
BTBD2 (GeneID 55643) | 1.27 | migration z between -2 and 2; enough cells | 1.22 | 5532 | inactive
KIR3DP1 (GeneID 548594) | -0.3 | migration z between -2 and 2; enough cells | 0.81 | 5948 | inactive
